{
  "source": "patent US20040039014A1",
  "about": "“Methods and compounds for treating depression and other disorders” (NPS Pharmaceuticals, Inc., priority 1998, published 2004)",
  "biological_target": "T1, NMDA receptor",
  "T1 construct": "rat cortex membranes",
  "assay": "[3H]MK-801 binding assay (rat cortex synaptic plasma membranes)",
  "conditions": "Table II",
  "protocol": "Synaptic plasma membranes (SPMs) from rat cortex were prepared as follows. Isolated cerebral cortices from male and female rats were purchased from Pel-Freez (Rogers, Ariz.) in bulk, and stored at −80° C. The cortices from 25 rats were thawed and pooled. […] The resulting homogenates were centrifuged for 10 min at 1,000×g in a T865 rotor, UltraPro80 Sorvall Centrifuge. The supernatant was removed and subsequently centrifuged at 30,000×g for 30 min. […] Membranes were washed by re-suspension in 500 ml of 5 mM K-EDTA (pH 7.0), incubated at 32° C. for 30 min with stirring, and centrifuged at 100,000×g for 30 min. The final pellet was resuspended in 60 ml of […] K-EDTA (pH 7.0) and stored in aliquots at −80° C. The extensive washing procedure utilized in this assay was designed to minimize the concentrations of glutamate and glycine (co-agonists at the NMDA receptor-ionophore complex) present in the membrane preparation.\nOn the day of assay, aliquots of SPM were thawed and resuspended in 75 vols of 5 mM K-EDTA, pH 7.0. SPM were centrifuged at 100,000×g for 30 min at 4° C.\nThe SPM pellet was resuspended in assay buffer (30 mM EPPS, 1 mM K-EDTA, pH 7.0) by polytron. […] Radioactivity on the filters was measured using Fisherbrand Scinti-Safe scintillation cocktail. Samples were shaken for 45-60 min on a shaker platform to solubilize the radioactivity. […]",
  "data": [
    {"molecule": "CNCCC(Oc1ccc(C(F)(F)F)cc1)c1ccccc1", "note": "(stereo not shown) [Fluoxetine, reference compound]", "values": [
      {"measurement": "[3H]MK-801 data", "result": "No activity at 10 μM"}
    ]}
  ]
}
